According to ChEMBL document CHEMBL1140732, “2-(3-aryl-3-oxopropen-1-yl)-9-tert-butyl-paullones: a new antileishmanial chemotype” (J Med Chem, 2008):

Key:
Leishmania donovani [1] = assay: microbe, parasite or virus in culture; conditions: 1S-C12d
THP-1 = assay: Toxicity against human THP1 cells at 5 uM by alamar blue viability assay; conditions: thp-1, 5 µM
Leishmania donovani [2] = assay: microbe, parasite or virus in culture; format: functional; conditions: 1S-C12d, THP-1
Leishmania donovani [3] = assay: microbe, parasite or virus in culture; format: functional; conditions: 1S-C12d
Leishmania donovani [4] = assay: microbe, parasite or virus in culture; format: functional; conditions: 1S-C12d; remark: listed apart in the source

Cc1ccc2[nH]c3c(c2c1)CC(=O)Nc1ccccc1-3
inhibition at 50 µM (Leishmania donovani [1]): 91.2%
Activity (THP-1): 0%
inhibition at 5 µM (Leishmania donovani [2]): 0%
inhibition at 15 µM (Leishmania donovani [3]): 25.5%
GI50 (Leishmania donovani [4]): 15.7 µM
